Assay results as given in patent US20240409647A1, “BISPECIFIC BINDING PROTEINS AGAINST ALARMINS AND USES THEREOF” (SINOMAB BIOSCIENCE LIMITED, priority 2022, published 2024).
Results are given in words; binding and its absence hold for the method and conditions named. Some entries that bind do so weakly or less than the wild type.

Protein sequences, listed by entry. Tags and fused reporters are not part of them. Lines headed by an entry give the natural chain unless they say otherwise; changes in a name come on top. Chains listed by the source or under a name are the forms on record and can include a tag or linker.
full-length rhesus monkey IL-17RB expressed on HEK293 cells (H9FWT9, form named): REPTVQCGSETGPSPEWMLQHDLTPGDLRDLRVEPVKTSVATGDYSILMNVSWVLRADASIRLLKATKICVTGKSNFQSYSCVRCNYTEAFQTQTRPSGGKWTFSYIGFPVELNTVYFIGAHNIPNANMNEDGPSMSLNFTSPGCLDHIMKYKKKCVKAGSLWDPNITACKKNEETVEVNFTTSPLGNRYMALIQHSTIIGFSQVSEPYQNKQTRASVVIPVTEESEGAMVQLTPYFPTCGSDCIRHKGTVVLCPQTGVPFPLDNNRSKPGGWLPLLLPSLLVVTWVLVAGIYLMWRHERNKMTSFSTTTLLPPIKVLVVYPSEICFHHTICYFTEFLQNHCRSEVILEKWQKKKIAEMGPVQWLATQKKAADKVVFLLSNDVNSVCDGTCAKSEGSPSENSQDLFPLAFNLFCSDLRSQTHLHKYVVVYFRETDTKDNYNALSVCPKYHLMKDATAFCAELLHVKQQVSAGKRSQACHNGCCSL
rhesus monkey IL-17RB protein (recombinant, R&D systems) (H9FWT9, form named): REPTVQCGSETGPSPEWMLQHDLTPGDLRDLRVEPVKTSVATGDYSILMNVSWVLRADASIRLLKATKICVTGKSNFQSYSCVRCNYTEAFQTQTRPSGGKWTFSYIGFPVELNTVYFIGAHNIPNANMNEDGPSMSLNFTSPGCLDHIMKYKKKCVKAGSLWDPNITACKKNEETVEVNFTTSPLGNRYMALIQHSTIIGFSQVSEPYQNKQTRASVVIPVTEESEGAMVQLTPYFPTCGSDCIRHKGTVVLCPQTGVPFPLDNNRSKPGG

Legend:
[1] = target: full-length rhesus monkey IL-17RB expressed on HEK293 cells (rhesus monkey) (UniProt H9FWT9); experiment: flow cytometry, transfected HEK293 cells
[2] = target: rhesus monkey IL-17RB protein (recombinant, R&D systems) (rhesus monkey) (UniProt H9FWT9); experiment: ELISA, coated IL-17RB
[3] = target: cynomolgus monkey IL-17RB protein (recombinant, R&D systems) (cynomolgus monkey); experiment: ELISA, coated IL-17RB

Measured: binding

B1: SM17 (antibody, human IgG4 S228P, kappa, V domains shown)
VH: QVQLVQSGAEVKKPGASVKVSCKASGYTFISYWMNWVRQAPGQGLEWMGRIDPYDSEIQYNQKFKDRVTMTRDTSISTAYMELSRLRSDDTAVYYCARSGGFDWFAYWGQGTLVTVSS
VL: DIQMTQSPSSLSASVGDRVTITCRASENINSNLAWYQQKPGKAPKLLLYDVTNLADGVPSRFSGSGSGTDYTLTISSLQPEDFATYYCQHFWGPPYTFGGGTKVEIKR
binds: all assays above
